HELM strings list residues between dots; [ac] is acetyl, [am] amide, other brackets name non-standard units.
Key:
[1] = general procedure: Fmoc solid-phase peptide synthesis; Fmoc-Rink Amide-Tentagel resin (TGRA); Fmoc-Sieber-polystyrene resin; HATU/collidine; settings: whole synthesis; for final HPLC purity: analytical HPLC (Shimadzu Nexera-x2 UHPLC, C8 or C18), scale of the general procedure 0.100-0.500 mmol
[2] = general procedure: Fmoc solid-phase peptide synthesis; Sieber resin; HATU/collidine; settings: whole synthesis, scale 0.100 mmol
[3] = general procedure: Fmoc solid-phase peptide synthesis; Tentagel Rink Amide (TGRA); HATU/collidine; settings: whole synthesis

PEPTIDE1{G.Y.R.P.V.H.N.I.R.G.H.W.A.P.G.K.[am]}$$$$V2.0
final HPLC purity [1]: 95.8% | isolated mass [2]: 38.2 mg | isolated yield [2]: 20%

PEPTIDE1{G.Y.R.P.V.H.N.I.R.G.H.W.A.P.G.[KT].[am]}$$$$V2.0
isolated mass ([3]; scale 0.029 mmol): 28.1 mg | isolated yield ([3]; scale 0.029 mmol): 43% | final HPLC purity [1]: 100%

PEPTIDE1{[tam].F.R.C.L.V.E.N.R.G.D.V.P.F.V.T.R.I.R.[am]}$$$$V2.0
final HPLC purity [1]: 99.7% | isolated mass ([1]; scale 0.01 mmol): 4.7 mg | isolated yield ([1]; scale 0.01 mmol): 18%

PEPTIDE1{F.R.C.L.V.E.N.R.G.D.V.P.F.V.T.R.I.R.[am]}$$$$V2.0
isolated mass ([3]; scale 0.05 mmol): 37.3 mg | isolated yield ([3]; scale 0.05 mmol): 36% | final HPLC purity [1]: 92.3%
